The values below come from publication PMC11612460, “Development of a novel gut microphysiological system that facilitates assessment of drug absorption kinetics in gut” (Scientific Reports, 2024).

Data set [1] is described as follows: in vitro. To be noted: human, Papp, apical to basal. How it is done: (§1) The seeding medium and culture medium of hiSIECs for LLI and ALI were obtained from FUJIFILM Corporation. hiSIECs were cultured according to the manufacturer’s instructions. Briefly, Fluid3D-X® devices were coated with Corning Matrigel GFR Basement Membrane Matrix (Corning) on the day before seeding the cells. hiSIECs were seeded onto a Fluid3D-X® device at 5.3 × 10^5 cells/MPS and incubated for 5.5 h. The seeding medium was added to the device, and cell culture was started in flow for 11 days at 20 pps 1/4 (3.8 µL/min). After one day, the seeding medium was replaced with LLI culture medium, and the medium was changed every two or three days. ALI culture was performed using the same method as the LLI culture, but the apical channel medium was removed to expose the cells to air on day 4. On day 11 after seeding, the gut MPS was used for the assay.
(§2) Eight gut chips were divided into two groups: with and without inhibitors. […] Because all steps were performed under static conditions, 200 µL of buffer was transferred from the outlet to the inlet by a micropipette before collection of each sample. Serial sampling (150 µL) was performed at following time points (0, 30, 60, 90, and 120 min) from both the donor and acceptor sides. Equal volumes of fresh buffer were added after the sample collection. At the end of the experiment (120 min), the cell lysates were collected. The concentrations of drugs and/or metabolites in the transport buffer and cells were measured by LC-MS/MS. […]
(§3) The apparent permeability coefficient (Papp, cm/s) was calculated using Eq. (1):1 [drawing 1] […]
(§4) The intestinal availability (Fg) of CYP3A substrates was calculated based on a previous report[35] using the following equation:3 [drawing 3] […]
(§5) The specimens were deproteinated with 3-times volumes of acetonitrile and centrifuged to obtain supernatants. For quantification of the drug concentration on the donor side, the specimens were further diluted 20 times with acetonitrile. […]

In data set [2] the test system is hiSIECs monolayers in gut MPS/Fluid3D-X. As to the kind of experiment: in vitro. The note with it: ketoconazole 10 µM, PSC833 5 µM, Ko143 5 µM. How it is done:
as §1, §2, §3, §4, §5

Data set [3] deals with hiSIECs monolayers in gut MPS/Emulate. As to the kind of experiment: Permeability / donor concentration of test drugs using gut MPS/Emulate (fluidic conditions).

Consider `CC(C)NCC(O)COc1ccc(CC(N)=O)cc1` (stereo not shown) [Atenolol], for which the Papp at 120 min in data set [1] (inhibitor (+)) worked out at 0.865 ± 0.173 ×10⁻⁶ cm/s; in data set [1] (inhibitor (-)), 1.31 ± 0.19 ×10⁻⁶ cm/s. Besides, the “effect of inhibitor cocktail on apical-to-basal transport” value in data set [2] is reported as “sensitive to the inhibitors”; in data set [3], “inhibitor-sensitive”.

One may read the Papp as the rate of passage across a membrane or cell layer, normalised by area and donor concentration. Higher therefore signals ready permeation.
